{
  "sequences": {"note": "The chains behind the UniProt entries cited, without tags or fusion partners.", "UniProt P35462, whole entry, looked up": "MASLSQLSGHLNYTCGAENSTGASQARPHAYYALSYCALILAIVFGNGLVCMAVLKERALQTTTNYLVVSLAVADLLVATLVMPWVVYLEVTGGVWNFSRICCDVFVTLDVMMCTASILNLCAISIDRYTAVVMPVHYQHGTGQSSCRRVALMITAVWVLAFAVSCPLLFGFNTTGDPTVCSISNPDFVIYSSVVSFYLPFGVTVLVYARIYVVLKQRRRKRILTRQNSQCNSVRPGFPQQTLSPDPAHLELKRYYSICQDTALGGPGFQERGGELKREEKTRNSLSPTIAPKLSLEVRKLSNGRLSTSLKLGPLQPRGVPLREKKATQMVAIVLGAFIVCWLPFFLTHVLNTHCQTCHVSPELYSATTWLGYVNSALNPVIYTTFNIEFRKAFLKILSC"},
  "source": "PubChem BioAssay AID652054",
  "about": "(National Center for Advancing Translational Sciences (NCATS), 2013)",
  "note": "Screen size: about 360,000 compounds; about 9,100 (2.5%) were called active. Inconclusive results, whose numbers are uncertain, are shown with a selection of clear calls. Rule as the data show it: active = max response below about -50%; inconclusive = no clear call, values can overlap the other calls; inactive = above that. % is scaled to controls: 0 for no effect and ±100 for the full control effect.",
  "data": [
    {"target": "D(3) dopamine receptor (Homo sapiens) (UniProt P35462)", "assay": "qHTS of D3 Dopamine Receptor Antagonist: qHTS", "details": "D3R cells, DiscoveRx beta-arrestin luminescence, antagonist mode; hits give low values", "summary_of_the_method": "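Cells expressing the human receptor were seeded at 1500 cells/well, incubated overnight at 37 degrees C in 5% CO2, then exposed to library compounds with dopamine controls for 90 minutes at 37 degrees C before luminescent detection.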", "values": [
      {"smiles": "C=CCc1cccc(OC)c1OCCOCCNCCO", "max response, negative = inhibition": "inconclusive: -48%"},
      {"smiles": "COCc1[nH]nc2c1C(c1ccccc1OC)C(C#N)=C(N)O2", "note": "(stereo unspecified)", "max response, negative = inhibition": "inconclusive: -48.8%"},
      {"smiles": "COc1ccc(CCn2nc(C)c([N+](=O)[O-])c2C)cc1", "max response, negative = inhibition": "inactive: -1.18%"},
      {"smiles": "Cc1ccc2ccc(C(Nc3ccccc3)c3ccccc3)c(O)c2n1", "note": "(stereo unspecified)", "max response, negative = inhibition": "inconclusive: -31.6%"},
      {"smiles": "COCc1cccc(-c2csc(C(O)c3ccccc3)n2)c1", "note": "(stereo unspecified)", "max response, negative = inhibition": "inactive: 22.3%"},
      {"smiles": "Nc1c(N=O)c(=O)[nH]c(=O)n1-c1ccccc1", "max response, negative = inhibition": "inconclusive: -33.4%"},
      {"smiles": "CC(=O)Nc1cc2c(=O)n(Cc3ccccc3)c(C)nc2cc1N1CCOCC1", "max response, negative = inhibition": "inconclusive: -46.8%"},
      {"smiles": "C[C@@H]1CN([C@@H](C)CO)C(=O)c2cc(NS(C)(=O)=O)ccc2O[C@@H]1CN(C)S(=O)(=O)c1ccccc1", "max response, negative = inhibition": "inconclusive: -34.3%"},
      {"smiles": "CCN(CC(=O)Nc1c(F)cccc1F)C(=O)c1ccc(N2CCOCC2)c([N+](=O)[O-])c1", "max response, negative = inhibition": "inconclusive: -38.8%"},
      {"smiles": "O=C(NN=C1c2ccccc2-c2ccccc21)c1ccccc1Br", "max response, negative = inhibition": "inconclusive: -43.9%"},
      {"smiles": "Cc1nn(-c2c(Cl)cc(Cl)cc2Cl)c(=O)c2ccccc12", "max response, negative = inhibition": "inconclusive: -31.4%"},
      {"smiles": "COc1cccc(-c2sc3ccc(OC)cc3c2-c2ccc(OCCN(C)C)cc2)c1", "max response, negative = inhibition": "active: -78.6%"},
      {"smiles": "Cc1ccc(N(CC(=O)NCCc2ccc(Cl)cc2)S(=O)(=O)c2c(C)noc2C)cc1", "max response, negative = inhibition": "inactive: -19.4%"},
      {"smiles": "C=CCNc1cccc(Br)c1", "max response, negative = inhibition": "inactive: 19.5%"},
      {"smiles": "N#Cc1c(Nc2ccccc2)[n+]([O-])c2ccc(Cl)cc2[n+]1[O-]", "max response, negative = inhibition": "active: -54.6%"},
      {"smiles": "Cc1ccc(Cl)cc1NS(=O)(=O)c1c(C)[nH]c(=O)[nH]c1=O", "max response, negative = inhibition": "inconclusive: -43.3%"},
      {"smiles": "COC(=O)c1cc(OC)c(OC)cc1N", "max response, negative = inhibition": "inconclusive: -36.2%"},
      {"smiles": "COc1cccc(-c2sc3ccccc3c2-c2ccc(OCCN3CCCC3)cc2)c1", "max response, negative = inhibition": "inconclusive: -41.4%"},
      {"smiles": "COc1ccccc1C(O)(c1ccccc1)c1ccccc1OC", "max response, negative = inhibition": "inactive: -10.1%"},
      {"smiles": "O=C(COc1ccc(Cl)cc1)NCCN1CCCCC1", "max response, negative = inhibition": "inconclusive: -44.2%"},
      {"smiles": "O=C(OCCN1CCN(c2ncc(C(F)(F)F)cc2Cl)CC1)c1ccc(Cl)cc1", "max response, negative = inhibition": "active: -83.1%"},
      {"smiles": "O=C1c2ccccc2NC(c2ccc(Cl)cc2Cl)N1Cc1ccccc1", "note": "(stereo unspecified)", "max response, negative = inhibition": "active: -53.2%"},
      {"smiles": "CNCCCCOc1ccccc1-c1ccccc1", "max response, negative = inhibition": "active: -75.9%"},
      {"smiles": "Cc1c(O)c(=O)n(-c2ccccc2)n1C", "max response, negative = inhibition": "active: -56.5%"},
      {"smiles": "N#Cc1ccccc1OCc1cn(CC(=O)c2ccc(O)cc2)nn1", "max response, negative = inhibition": "active: -73.4%"},
      {"smiles": "COc1ccc(S(=O)(=O)NNC(=O)c2cc3cc4ccccc4nc3s2)cc1", "max response, negative = inhibition": "inconclusive: -34.9%"}
    ]}
  ]
}
